Source: publication doi:10.1101/2020.05.07.057075
These are yes or no findings as the source states them, for the method shown. For some of these results: Binding seen in cells or lysates may run through a third protein. Some results given as binding are weak or reduced against the parent protein; the word gives no strength. Each block holds one substance with its values, some of them ahead of it.

Amino acid sequences for entries named in this document (tags omitted). A change or cut given only in a name is not applied to a line headed by its entry. Chains listed by the source or under a name are the forms on record and can include a tag or linker. Residues count along the entry.
UniProt P99999: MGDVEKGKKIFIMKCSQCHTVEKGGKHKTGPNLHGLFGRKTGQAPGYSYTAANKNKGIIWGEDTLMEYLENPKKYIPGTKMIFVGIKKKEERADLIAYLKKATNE
UniProt P06748: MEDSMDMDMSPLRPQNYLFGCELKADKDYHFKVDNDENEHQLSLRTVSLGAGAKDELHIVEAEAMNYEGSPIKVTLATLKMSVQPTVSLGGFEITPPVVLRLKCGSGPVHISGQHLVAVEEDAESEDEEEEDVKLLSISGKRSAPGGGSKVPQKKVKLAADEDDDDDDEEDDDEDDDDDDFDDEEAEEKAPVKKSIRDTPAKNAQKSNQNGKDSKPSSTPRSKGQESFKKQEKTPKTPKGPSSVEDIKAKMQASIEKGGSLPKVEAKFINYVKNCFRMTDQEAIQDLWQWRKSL
NPM oligomerization domain NPM(1-130), His-tagged: residues 1-130 of P06748

What was measured:
[1] = biological target: cytochrome c (Cc), recombinant, purified (UniProt P99999); experiment: NMR titration
[2] = biological target: endogenous cytochrome c of HeLa cells (human (endogenous in HeLa)) (UniProt P99999); experiment: co-IP
[3] = biological target: NPM oligomerization domain core NPM(9-122) (UniProt P06748); experiment: SPR
[4] = biological target: full-length nucleophosmin NPM(1-294), recombinant (UniProt P06748); experiment: SPR
[5] = biological target: NPM oligomerization domain NPM(1-130), His-tagged (UniProt P06748); experiment: NMR titration
[6] = biological target: NPM oligomerization domain core NPM(9-122) (UniProt P06748); experiment: crystal structure
[7] = biological target: NPM oligomerization domain NPM(1-130), His-tagged (UniProt P06748); experiment: native gel or EMSA
[8] = biological target: NPM oligomerization domain core NPM(9-122) (UniProt P06748); experiment: negative-stain electron microscopy with 3D reconstruction
[9] = biological target: full length NPM ahead of the N-end fragment of YFP (UniProt P06748); experiment: split reporter

Substance: full-length nucleophosmin NPM(1-294), recombinant (from UniProt P06748 1-294)
- binding [1]: binds

Substance: NPM oligomerization domain core NPM(9-122) (from UniProt P06748 9-122) (domain or fragment)
- binding [1]: binds

Now from value to substance:

- binding [2]: binds
Substance: endogenous nucleophosmin of HeLa cells (from UniProt P06748 1-294)

- binding [3]: binds
- binding [4]: binds
- binding [5]: binds
- binding [6]: binds
- binding [7]: binds
- binding [8]: binds
Substance: cytochrome c (Cc), recombinant, purified (from UniProt P99999 2-105)

- binding [9]: binds
Substance: Cc fused to the C-end domain of the yellow fluorescent protein (from UniProt P99999 1-105)
